Experimental data: US7395112B2, “Method and apparatus for treating tumors using low strength electric fields” (priority 2002, dated 2008)

Tested on: CD3+, CD4+, CD8+ and CD19+ splenocytes
Assay: FACS analysis of splenic lymphocyte populations in treated DA3 tumor bearing mice
Assay type: in vivo, BALB/c mice
Details: LEF with the drug; 10-12 days following treatment

Molecule | splenic lymphocyte profiles of CD3+, CD4+, CD8+ and CD19 cells compared with untreated tumor bearing mice
CC(=O)O[C@H]1C(=O)[C@@]2(C)[C@H]([C@H](OC(=O)c3ccccc3)[C@]3(O)C[C@H](OC(=O)[C@H](O)[C@@H](NC(=O)c4ccccc4)c4ccccc4)C(C)=C1C3(C)C)[C@]1(OC(C)=O)CO[C@@H]1C[C@@H]2O [taxol, paclitaxel] | normal, or more normal-like
bleomycin | normal, or more normal-like
